The source of these data is PubChem BioAssay AID1487 (National Center for Advancing Translational Sciences (NCATS), 2009).

Molecules are shown by their SMILES. This is one part of the list. The main result of the screen is listed elsewhere. These columns were measured beside it and carry no call. Compounds called inactive in the main read-out are mostly missing here. Words in brackets tell the shape of the fitted curve; partial curves, single points and poor fits give uncertain potencies.

The assay can be described thus: qHTS Assay for Modulators of Lamin A Splicing. Conditions: HeLa LMNA splicing GFP/RFP minigene ratio, 48 h. From the text: NCGC Assay Overview: Hutchinson-Gilford Progeria Syndrome (HGPS) is a pediatric premature aging disease caused by a spontaneous mutation in the lamin A/C (LMNA) gene. The mutation activates a cryptic splice site in the LMNA pre-mRNA which results in production of a pre-lamin A protein that cannot be processed properly. The mutant protein accumulates in the nucleus and negatively affects numerous cellular functions. Correction of the splicing defect in HGPS patient cells using a targeted oligonucleotide (exo11) leads to reversal of the cellular disease phenotypes. To identify small molecule modulators of aberrant LMNA splicing, a homogenous assay was constructed in HeLa cells that used a GFP containing minigene to report on correction of aberrant splicing in lamin A and a RFP (DsRed2) to report on cell viability, uniformity and nonspecific effects on the assay signal. This assay was adapted to laser-scanning microplate cytometry (Acumen, TTP Labtech) where miniaturization of the assay to a 1,536-well plate format was possible. References: Bowen, W. P.; Wylie, P. G. Application of Laser-Scanning Fluorescence Microplate Cytometry in High Content Screening. Assay Drug Dev Technol 2006;4:209-221. Scaffidi P, Misteli T. Reversal of the cellular phenotype in the premature aging disease Hutchinson-Gilford progeria syndrome. Nat.
NCGC Assay Protocol Summary: Reagents/Controls: Stable clones expressing DsRed2 and lamin A-EGFP were generated by Cell and Molecular Technologies in S3 HeLa cells. HeLa cells were prepared for the assay when they were 70-90% confluent. The cells were counted and resuspended in Opti-MEM I (no phenol red; Gibco), 2% FBS, 1% penicillin/ streptomycin (Gibco) at concentration of 120 cells/uL concentration. The suspension was passed through a Falcon basket filter with pore size 40um (Beckton Dickson). Control titrations: column […] 1536-well plate contained a sixteen point titration (1:2 dilutions) in duplicate of ancitabine (Sigma: A8598) beginning at 40 uM final concentration. Column 2 contained a sixteen point titration (1:2 dilutions) of cycloheximide beginning at 1.4 mM final concentration. Column 3 contained ancitabine at 40 uM and column 4 contained was the vehicle control (0.5% DMSO final concentration). Assay Steps: 5 uL of HeLa cells were plated in Aurora LoBase black clear bottom (cyclic-olefin polymer) 1536-well plates at a final density of 600 cells/well. Controls and library compounds were added with a 1536-well pin array using the Kalypsys pin-tool. The plates were then incubated for 48 hrs in a cell-culture incubator (37 °C; 5% CO2, 98% humidity). Following incubation the plates were read on the Acumen Explorer using the 488 nm laser. Data was collected on objects between 10 and 100 um in size. Cell objects were defined by a 15 um width x 10 um depth filter. The ratio of the total object intensity in PMT1 (500-530 nm emission; GFP) over PMT3 (575-640 nm emission; RFP) was calculated for analysis. Keywords: NIH Roadmap, MLSCN, MLI, MLSMR, qHTS, NCGC, lamin A, Progeria, RNA splicing.

[1] abbreviates: measured here: RFP viability control channel.
The mark [2] stands for this setting: measured here: GFP splicing reporter channel.

Broadly, the AC50 is the midpoint of the concentration-response curve, whichever way the signal moves. `CC1CCc2c(sc(NC(=O)CSc3nc4c(c(C(F)(F)F)n3)CCc3ccccc3-4)c2C(N)=O)C1` (configuration not stated): the AC50 under setting [1] is 11.2 µM [rising, partial curve, poor fit].

For the compound `C=C(C)Cn1c(=O)c2c(nc3n2CCN3c2cccc(Cl)c2C)n(C)c1=O`, the AC50 under setting [1] was 28.2 µM [rising, single point].

For the compound `Cc1ccc(/C=C/C(=O)OCC(=O)NCCN2C(=O)CSC2=O)cc1`, the AC50 runs as follows: under setting [2], 10 µM [rising, partial curve, poor fit]; under setting [1], 12.6 µM [rising, partial curve, poor fit].

Consider `C=C1CC2C3CC[C@@]4(OCOC45COCO5)[C@@]3(C)C(O)CC2[C@@]2(C)CCC(=O)C=C12` (some centres not stated), for which the AC50 under setting [1] was 20 µM [rising, partial curve].

Take `CC(=O)c1cc(-c2nc3ccccc3n2C)n(C)c1`: the AC50 under setting [2] was 35.5 µM [falling, single point].

As to `CC(OC(=O)C1COc2ccccc2O1)C(=O)N(C)c1ccccc1` (configuration not stated), the half-maximal activity concentration (AC50) under setting [1] is 3.16 µM [rising, partial curve].

With `CCCc1cc(-c2nc(-c3ccc(Br)cc3)cs2)ccn1`, the concentration at half-maximal activity (AC50) under setting [2] was 22.4 µM [rising, single point] and the AC50 under setting [1] was 28.2 µM [rising, single point].

As for `O=C(Nc1ccc2oc(-c3ccccc3F)nc2c1)c1ncn[nH]1`, the half-maximal activity concentration (AC50) is 0.562 µM [rising, partial curve] under setting [2] and 12.6 µM [rising, single point] under setting [1].

As to `Cc1ccc2nc(NC(=O)C3CCN(S(=O)(=O)c4cnc[nH]4)CC3)sc2c1`, the AC50 by setting is: under setting [2], 35.5 µM [rising, single point]; under setting [1], 35.5 µM [rising, single point].

Turning to `Cc1cc(NC(=O)c2cccc(N3C(=O)CCC3=O)c2)no1`, the half-maximal activity concentration (AC50) is 0.501 µM [falling, full curve, poor fit] under setting [2] and 0.501 µM [falling, full curve, poor fit] under setting [1].

Turning to `CSc1ccc(/C=C/C(=O)c2ccc(O)cc2)cc1`, the AC50 by setting is: under setting [2], 35.5 µM [falling, single point]; under setting [1], 35.5 µM [falling, single point].

Regarding `CCOC(=O)N1CCN(c2c(F)cc3[nH]c(=S)[nH]c3c2Br)CC1`, under setting [1], the half-maximal activity concentration (AC50) was 10 µM [rising, partial curve].

As to `Cc1ccc(NC(=O)CSc2nnc(-c3ccco3)c(-c3ccco3)n2)cc1`, the AC50 under setting [1] was 12.6 µM [rising, partial curve, poor fit].

Take `COc1ccc(-c2nc(C)c(CCNS(=O)(=O)c3cc(C)c(C)cc3C)s2)cc1`: the AC50 under setting [1] is 20 µM [rising, single point].

As to `O=C(NCCc1ccccc1)c1nnc(Cc2cccc(F)c2)o1`, the AC50 is 15.8 µM [falling, partial curve] under setting [2] and 17.8 µM [falling, partial curve, poor fit] under setting [1].
